Assay results from article PMC9016710.
Results are given in words; binding and its absence hold for the method and conditions named. Binding seen in cells or lysates may run through a third protein. Binding calls can cover weak binding; strength is not graded here.

Chains of the proteins cited; added tags and fusions are not shown. Lines headed by an entry give the natural chain unless they say otherwise; changes in a name come on top.
UniProt A0A8T8BZN3: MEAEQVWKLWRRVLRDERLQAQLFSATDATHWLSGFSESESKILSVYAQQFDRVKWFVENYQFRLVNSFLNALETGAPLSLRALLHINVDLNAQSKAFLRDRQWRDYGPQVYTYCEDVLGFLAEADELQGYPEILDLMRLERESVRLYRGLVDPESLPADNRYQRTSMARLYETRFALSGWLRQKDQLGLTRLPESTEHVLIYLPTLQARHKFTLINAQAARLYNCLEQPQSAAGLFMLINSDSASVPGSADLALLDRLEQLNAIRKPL

Target: His6-TglH (monomer seen in native MS) (Pseudomonas syringae pv. maculicola str. ES4326)
Assay: native MS; purified TglHI (His6-TglH coexpressed and co-purified with TglI) observed as intact heterodimer; both purified

binding: binds
Substance: TglI (monomer seen in native MS) (from UniProt A0A8T8BZN3)
